Experimental findings from ChEMBL document CHEMBL1128393 (J Med Chem, 1995) are described below.

The target of this assay is T1, Cytochrome P450 11B2, mitochondrial (Rattus norvegicus, UniProt P30099).
T1 sequence (P30099 whole entry): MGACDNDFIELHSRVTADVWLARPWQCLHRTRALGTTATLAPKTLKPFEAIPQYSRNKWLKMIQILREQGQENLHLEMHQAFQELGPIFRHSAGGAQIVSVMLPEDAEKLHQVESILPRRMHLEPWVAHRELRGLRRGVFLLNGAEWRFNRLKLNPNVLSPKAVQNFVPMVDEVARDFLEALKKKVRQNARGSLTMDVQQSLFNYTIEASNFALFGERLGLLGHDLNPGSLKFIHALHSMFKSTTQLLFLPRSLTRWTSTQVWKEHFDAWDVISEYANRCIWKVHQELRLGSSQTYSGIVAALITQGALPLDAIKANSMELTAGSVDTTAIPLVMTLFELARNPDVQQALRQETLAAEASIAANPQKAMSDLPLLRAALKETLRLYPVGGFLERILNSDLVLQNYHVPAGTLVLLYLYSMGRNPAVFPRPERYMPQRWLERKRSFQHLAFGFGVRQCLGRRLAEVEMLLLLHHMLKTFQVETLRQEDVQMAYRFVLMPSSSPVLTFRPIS

The structures appear in SMILES notation.

As for `N#Cc1ccc(C2CCCc3cncn32)cc1` (stereo unspecified) [FADROZOLE], 600 nM corresponded to half-maximal inhibition (IC50).
